Experimental data from PubChem BioAssay AID540256 (National Center for Advancing Translational Sciences (NCATS), 2011).
About 3,700 (1.2%) of roughly 300,000 compounds were called active. This list was built around the results that the source calls inconclusive (neither active nor inactive); the mix of calls is not that of the screen. Calls follow the shape of the full dose curve; tested in HEK293 cells. Potencies beside an inconclusive call are fits to weak or partial responses and may not hold up.

assay: qHTS for Inhibitors of binding or entry into cells for Lassa Virus; details: Lassa virus pseudotype entry inhibition, cell reporter; series mostly up to 37.9 µM; also: nearly all actives have a fitted effect of over 50% in size
Potency is read from the fitted curve at half-maximal effect.

Structure (SMILES) | Potency
O=C(C[n+]1cccc(CNC(=O)c2ccc(OC(F)F)cc2)c1)Nc1ccc(SC(F)F)cc1 | inactive
Cc1cc(=S)cc(C)n1CCCn1ccnc1 | inactive
CCN(CC#CCC(O)(c1ccccc1)c1ccccc1)C(C)C | inconclusive: 29.1 µM [inhibitor, single point]
COc1ccccc1N1N=C(C(=O)c2ccccc2)C2C(=O)N(c3ccc(Br)cc3)C(=O)C21 (stereo not given) | inactive
C=CCOc1ccc(CN(C)c2ccc(S(=O)(=O)N3CCN(C)CC3)cc2[N+](=O)[O-])cc1 | inconclusive: 11.2 µM [inhibitor, partial curve, poor fit]
O=C1NC(=O)/C(=C\c2ccc(OCc3cnc(Cl)s3)cc2)S1 | inactive
O=C1c2oc3ccccc3c(=O)c2C(c2ccccc2)N1Cc1ccc2c(c1)OCO2 (stereo not given) | inactive
CCc1cccc(CC)c1NC(=O)c1cc(CN2C(=O)c3ccccc3C2=O)ccc1OC | inconclusive: 35.5 µM [inhibitor, single point]
Cc1ccc(S(=O)(=O)N2CCOCC2)cc1NC(=O)COc1ccccc1Cc1ccccc1 | inconclusive: 11.2 µM [inhibitor, partial curve, poor fit]
Brc1ccc2ncnc(NCc3ccco3)c2c1 | inconclusive: 3.66 µM [inhibitor, partial curve, poor fit]
O=C(N/N=C/c1c[nH]c2ccccc12)C1CC1c1ccccc1 (stereo not given) | active: 2.82 µM
Cc1cccc(OCC(=O)N(Cc2cccs2)c2ccc(Cl)cc2)c1C | inconclusive: 11.2 µM [inhibitor, single point]
CC(C)CCNC(=O)c1cc(-c2ccco2)nc2ccccc12 | inactive
CN(CC(=O)NCCc1ccccc1)S(=O)(=O)c1ccc(Br)cc1 | inactive
NNC(=O)[C@H](Cc1ccccc1)NC(=O)Nc1ccc2c(c1)OCCO2 | inactive
Cc1cccc(OC(C)C(=O)N2CCCc3ccccc32)c1 (stereo not given) | inconclusive: 2.82 µM [activator, partial curve, poor fit]
Cc1nn(CC(=O)NCCCN2CCOCC2)c(C)c1[N+](=O)[O-] | inactive
Cc1cc(C(=O)Nc2ccc3ccccc3c2)oc1C | inconclusive: 11.2 µM [inhibitor, partial curve, poor fit]
CC(C)(C)OC(=O)N1CCC(c2c(C(=O)N3CCC(c4ccccc4)C3)cnn2-c2cccc(Cl)c2)CC1 (stereo not given) | inconclusive: 3.55 µM [inhibitor, partial curve]
Cc1cccnc1NCc1ccc(O)c2ncccc12 | inconclusive: 35.5 µM [inhibitor, single point]

Reformatted tab-delimited: 4 of the compounds above.
Structure (SMILES)	Potency
COc1ccccc1N1N=C(C(=O)c2ccccc2)C2C(=O)N(c3ccc(Br)cc3)C(=O)C21 (stereo not given)	inactive
C=CCOc1ccc(CN(C)c2ccc(S(=O)(=O)N3CCN(C)CC3)cc2[N+](=O)[O-])cc1	inconclusive: 11.2 µM [inhibitor, partial curve, poor fit]
O=C1NC(=O)/C(=C\c2ccc(OCc3cnc(Cl)s3)cc2)S1	inactive
O=C1c2oc3ccccc3c(=O)c2C(c2ccccc2)N1Cc1ccc2c(c1)OCO2 (stereo not given)	inactive
